Tested on: Male NMRI mice
Assay: Test 2: increase of motility of mice after intravenous administration (photocell crossings)
Settings: ratio between in vitro inhibition of 3H-GBR 12935 binding (Test 1) and in vivo activity in increasing motility (Test 2)
Procedure: The compounds were also tested for their ability to increase the motility of mice following intravenous administration using the method outlined below.
Male NMRI mice are used (20 ± 2 g). The animals are housed 20-30 per cage under constant temperature (20 ± 1°C) and relative humidity (40-60%). The animals are brought into the experimental room in the afternoon, the day before they undergo testing.
The experimentally-naive, uninjected mice are acclimatized by being placed in a plexiglass box (WLH: 20 x 20 x 38 cm), four per box, for a 120 min period, and then injected with the test compound whereafter they are replaced in the plexiglass box.
The plexiglass box is equipped with a frame of photocells (spaced equidistantly) which are situated so as to detect locomotor behaviour of the animals (1 cm above the floor). The photocell chamber is housed in an sound-insulated, dimly-lit, ventilated chest. As a measure of exploratory behaviour, the number of photocell crossings in a 360 min period is detected using a minicomputer. Testing is made between 7:00 and 17.00 h.
Drugs are injected i.v. simultaneously with start of testing; N = 4/dose; 4-5 doses of test drug is given in a volume of 10 ml/kg. […]

N#CCCCCN1CCN(CCOC(c2ccc(F)cc2)c2ccc(F)cc2)CC1 [Example 4A, 1-[2-(bis-(4-fluorophenyl)-methoxy)-ethyl]-4-(4-cyanobutyl)-piperazine]
Ratio: 7.5

From patent publication EP0541617B1, “1,4-DISUBSTITUTED PIPERAZINES” (NOVO NORDISK A/S, priority 1990, dated 1992)
